Results are given as percent effect. The record does not define 0% and 100%; most values in the screen are far below 50% and negative numbers occur (in some assays of this library far below -100). The compounds are a random part of those screened.

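Whole-parasite assay of Trypanosoma brucei over 72 hours; the read-out is not stated. Tested at 10 µM. Direction is inferred from retests: higher values go with stronger inhibition. Values scatter widely below zero; nearly all retest evidence comes from the higher of the two concentrations used. Size under these conditions: about 2,700 compounds, about 14 of them at 50% or above in at least one test.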

structure | Percent Effect
COCCN1CCN(CC(C)(O)c2cccc(C(F)(F)F)c2)CC1 (centres undefined) | -36.54%
CCOc1ncccc1CNC(=O)NCCNC(=O)c1ccco1 | -30.15%
COc1ccc(S(=O)(=O)N2CCc3ccc(F)cc32)cc1C(=O)O | -18.97%
CC(C)c1nc2c(n1C)CCN(Cc1cccc(C(N)=O)c1)C2 | -28.92%
CCn1cnnc1CNC(=O)c1cc(F)ccc1OC | -11.85%
Cc1ccc(CNC(=O)CN2CCOC(Cn3cccn3)C2)s1 (centres undefined) | -35.25%
Cc1cccc(OCCNC(=O)CN2CCCC2c2noc(C)n2)c1 (centres undefined) | -31.74%
Cc1nc(C)c(CC(=O)Nc2nnc(C3CC3)s2)c(=O)[nH]1 | -77.5%
Cc1ccccc1NC(=O)N1CCN(Cc2noc(C3CC3)n2)CC1 | -44.54%
CCCc1noc(CN2CCN(CCO)CC2)n1 | -7.571%
Cc1noc(C(C)C)c1C(=O)NCCCN1CCC(C)CC1 | -56.32%
CC(=O)N(Cc1ncc(C(C)C)o1)C1CCN(CC2CCC2)C1 (centres undefined) | -62.13%
Cn1ncc2c1CCCC2NCc1cccc2c1OCCCO2 (centres undefined) | -30.87%
CC(C)CCCNC(=O)Nc1ccc(C(N)=O)c(Cl)c1 | -20.73%
CSCC(=O)N1CCCC(c2cc(C)[nH]n2)C1 (centres undefined) | -37.89%
CN(Cc1nnc(C2CC2)n1C)C1CCN(CCc2cnn(C)c2)C1 (centres undefined) | -12.36%
c1ncn(CC2CN(CC3CCCCC3)CCO2)n1 (centres undefined) | -46.15%
Cc1cc(C)n(CC2CCCN2CCCS(C)(=O)=O)n1 (centres undefined) | -17.62%
CC(NC(=O)NCCCc1n[nH]c(N)c1C#N)c1cccc(Cl)c1 (centres undefined) | -9.199%
CCOCc1cc(CNC2CCCc3c2cnn3CC)ccc1OC (centres undefined) | -6.807%
COc1ccc(NC(=O)NC(C)Cc2ccco2)cn1 (centres undefined) | -79.64%
CC(Cc1ccco1)NC(=O)Nc1ccc(N(C)C)nc1 (centres undefined) | -26.37%
O=C(c1sccc1C1CC1)N1CCN(Cc2cscn2)CC1 | -76.26%
CCc1nccn1C1CCCN(C(=O)CCCc2ccccn2)C1 (centres undefined) | -44.65%
Cc1cnn(C2CCCN(C(=O)CCCOc3ccccc3F)C2)c1 (centres undefined) | -64.33%
Cc1nc(C)c(CC(=O)Nc2nnc(C(C)C)s2)c(=O)[nH]1 | -10.5%
Cc1nc(C)c(C(=O)NCCn2nc3ccccn3c2=O)s1 | -72.26%
Cc1cc(C)c(CNC(=O)CCC2CCCO2)c(=O)[nH]1 (centres undefined) | -2.093%
O=C(Nc1ccc(CCN2CCOCC2)cc1)C1CCC1 | -56.57%
CC(C)N(CC(N)=O)Cc1csc(C(C)(C)C)n1 | -57.42%
CN1CCN(C2CCN(Cc3nnc(C(C)(C)C)o3)CC2)C1=O | -47.68%
COc1ccc(CN2CCCCC2Cn2nc(C)nc2C)cc1F (centres undefined) | -70.69%
c1ccc(Cc2nnc(CN3CCOC(Cn4cccn4)C3)o2)cc1 (centres undefined) | -73.25%
Cc1ccc(NS(=O)(=O)c2cc3c(c(C(=O)O)c2)OCCO3)cc1F | -29.75%
Cc1ncc(C(=O)NC2CCc3nccn3C2)c(C(C)C)n1 (centres undefined) | -53.45%
CCc1nc(CN2CCCC(NCc3nnc(C4CC4)n3C)C2)no1 (centres undefined) | -62.88%
CCn1cnnc1CNC(=O)N1CCCCCC1 | -41.11%
c1csc(N2CCCN(Cc3noc(C4CC4)n3)CC2)n1 | -44.99%
Cc1noc(C)c1C(=O)N1CCC(Nc2cccnn2)CC1 | -78.53%
CN(C(=O)c1cccc(Cl)c1)C1CCN(c2ccccn2)CC1 | -74.31%
CCn1c(C)nnc1CN(C)C1CCN(CCOc2ccccc2)C1 (centres undefined) | -76.5%
Cc1nn(C)c(N2CCOCC2)c1CNC1CCN(C2CC2)CC1 | -0.2618%
COc1c(CNCc2ccc(CS(C)(=O)=O)cc2)c(C)nn1C | -20.78%

The last 4 entries again:

structure,Percent Effect
CN(C(=O)c1cccc(Cl)c1)C1CCN(c2ccccn2)CC1,-74.31%
CCn1c(C)nnc1CN(C)C1CCN(CCOc2ccccc2)C1 (centres undefined),-76.5%
Cc1nn(C)c(N2CCOCC2)c1CNC1CCN(C2CC2)CC1,-0.2618%
COc1c(CNCc2ccc(CS(C)(=O)=O)cc2)c(C)nn1C,-20.78%

From ChEMBL document CHEMBL3988442, “University of Dundee, Small-Polar-MMV Screening Library” (2021).